# Source: PubChem BioAssay AID504467 (National Center for Advancing Translational Sciences (NCATS), 2011)
# The campaign covered roughly 330,000 compounds. About 7,700 (2.3%) were called active. This list was built around the results that the source calls inconclusive (neither active nor inactive); the mix of calls is not that of the screen. Calls follow the shape of the dose curve; as a rule, active = well fitted inhibition curve with a large enough effect; inconclusive = small, poorly fitted or top-dose-only effect, or effect the other way; inactive = flat fitted curve, though single readings scatter. Potencies of inconclusive entries are doubtful fits and often do not repeat.
# Assay: qHTS screen for small molecules that inhibit ELG1-dependent DNA repair in human embryonic kidney (HEK293T) cells expressing luciferase-tagged ELG1; also: nearly all actives have a fitted effect of over 55% in size
# Settings: HEK293T ELG1-luciferase reporter, luminescence, 16 h, DNA damage induced by 5-fluorouridine; activity change, negative = inhibition: at 46.1 µM (top of the series)
# Summary of the method: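 In this reporter screen, reduction of luminescence relative to DMSO vehicle indicated activity. Compounds and 5-fluorouridine were added together to 2,000 cells per well, incubated for 16 hr at 37 °C, then developed with ONE-Glo.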
# % is scaled to controls: 0 for no effect and ±100 for the full control effect; potency is read from the fitted curve at half-maximal effect.
SMILES,Potency,"activity change, negative = inhibition"
COC(=O)c1cc(=O)n(Cc2ccc3c(c2)OCO3)c(=Nc2ccc(F)cc2)s1,"inconclusive: 11.6 µM [inhibitor, partial curve]",–
O=c1[nH]ncc(N/N=C/c2ccccc2)c1Cl,"inconclusive: 29.1 µM [activator, single point]",–
COc1cccc(C#Cc2c(C=O)n(C)c3ccccc23)c1,–,inactive: -19.6%
COc1cc(/C=N/n2nnnc2N)ccc1O,"inconclusive: 18.4 µM [activator, partial curve, poor fit]",–
COc1ccc(NC(=O)Nc2cc(C(C)(C)C)on2)cc1OC,"inconclusive: 18.3 µM [inhibitor, single point]",–
CCN(CC(=O)N1CCc2ccccc2C1)S(=O)(=O)c1ccc2ccccc2c1,–,inactive: -2.31%
O=S(=O)(c1cccc(Cn2nnc(-c3ccccc3)n2)c1)N1CCOCC1,"inconclusive: 18.3 µM [inhibitor, single point]",–
Cn1c(=O)[nH]c(=O)c2c1nc(N1CCN(Cc3ccccc3)CC1)n2CCSc1ncccn1,"inconclusive: 7.31 µM [inhibitor, partial curve]",–
CN(C(=O)COC(=O)c1ccccc1NCCO)C1CCS(=O)(=O)C1 (stereo not given),"inconclusive: 1.16 µM [inhibitor, single point]",–
c1cc2ccc3ccc(CN4CCOCC4)c4ccc(c1)c2c34,–,inactive: 3.64%
Cc1cccc(NCc2ccccc2)c1,"inconclusive: 5.8 µM [inhibitor, single point]",–
COc1cccc(/C=N/NC(=S)NC2CC3CC2C2C=CCC32)c1O (stereo not given),"inconclusive: 2.91 µM [inhibitor, single point]",–
Cc1onc(-c2ccccc2)c1C(=O)Nc1ccc2c(C)cc(=O)oc2c1,"inconclusive: 18.4 µM [inhibitor, single point]",–
CCN(c1ccc(NC(=O)COC(=O)C(C)N=C2NS(=O)(=O)c3ccccc32)cc1)C(C)C (stereo not given),"inconclusive: 32.6 µM [activator, partial curve, poor fit]",–
COc1ccc(N2C(=O)CC(Sc3n[nH]c(-c4cccc(C)c4)n3)C2=O)cc1 (stereo not given),"inconclusive: 3.26 µM [activator, single point]",–
Clc1ccc(CNc2nnnn2-c2ccccc2)c(Cl)c1,"inconclusive: 0.92 µM [inhibitor, full curve, poor fit]",–
COc1ccc(OCCCC(=O)Nc2cccc([N+](=O)[O-])c2C)cc1,"inconclusive: 14.6 µM [inhibitor, partial curve]",–
O=C(CSc1nc(-c2ccncc2)nn1CC(=O)N1CCCCC1)NC1CCCC1,"inconclusive: 29.1 µM [inhibitor, single point]",–
CCN(CC)S(=O)(=O)c1cc(C(=O)Nc2cc(C)[nH]n2)ccc1Cl,"inconclusive: 4.61 µM [activator, partial curve, poor fit]",–
N/C(=N\OC(=O)c1ccc(F)cc1)c1nonc1N,"inconclusive: 18.4 µM [activator, partial curve, poor fit]",–
CCN(CC)CC(O)COC(c1ccccc1)c1ccccc1 (stereo not given),–,inactive: 7.62%
Cc1cc(C)nc(NN2C(=O)/C(=C/c3ccc(O)cc3)SC2=S)n1,–,inactive: -4.92%
CCOC(=O)C(=NC(C)CC)NNc1ccc(Br)cc1 (stereo not given),–,inactive: 1.82%

# An excerpt of these results, with tabs.
SMILES	Potency	activity change, negative = inhibition
CCN(c1ccc(NC(=O)COC(=O)C(C)N=C2NS(=O)(=O)c3ccccc32)cc1)C(C)C (stereo not given)	inconclusive: 32.6 µM [activator, partial curve, poor fit]	–
CCN(CC)CC(O)COC(c1ccccc1)c1ccccc1 (stereo not given)	–	inactive: 7.62%

# (list continues)

SMILES,Potency,"activity change, negative = inhibition"
Cc1cc(NC(=O)c2cc3cccc([N+](=O)[O-])c3[nH]2)ccc1F,"inconclusive: 1.46 µM [activator, partial curve]",–
N#Cc1cnc(NCc2ccc(Cl)cc2Cl)nc1,–,inactive: 24.2%
C/C(=N\Nc1nc(C(C)(C)C)cs1)c1ccc(O)cc1,"inconclusive: 35.5 µM [activator, single point]",–
CCOc1ccc(N=Cc2c(O)c3ccccc3oc2=O)cc1,"inconclusive: 16.4 µM [activator, partial curve]",–
Cc1cccnc1NC(=O)Nc1cccc(Cl)c1,"inconclusive: 7.3 µM [activator, partial curve]",–
C[C@@H]1CC=C[C@H]2[C@H]1C(=O)N(Cc1ccccc1)[C@H]2c1ccc(F)c(Br)c1,–,inactive: 2.92%
O=c1c2ccccc2n(CC(O)CN2CCCCC2)c2ccccc12 (stereo not given),–,inactive: -3.19%
O=C(Nc1nnc(Cc2ccc(Cl)cc2)s1)c1ccco1,"inconclusive: 23.1 µM [activator, single point]",–
CC(C)(C)C(=O)NC(=S)NCCc1ccccc1,"inconclusive: 20.6 µM [activator, partial curve]",–
C=CCn1c(-c2c[nH]c3ccccc23)n[nH]c1=S,"inconclusive: 14.6 µM [activator, partial curve]",–
COc1cc(-n2c(C)nc3cccnc32)c(Cl)cc1C(=O)O,"inconclusive: 29.1 µM [activator, single point]",–
CN1CCN(C(=O)c2cc(=O)c3cc(Cl)cc(Cl)c3o2)CC1,–,inactive: -0.105%
CSc1ccc(-c2nc(CSCC(=O)N3CCOCC3)c(C)o2)cc1,"inconclusive: 23.1 µM [inhibitor, partial curve]",–
Cn1c(=O)c2c(nc(Br)n2CCCc2ccccc2)n(C)c1=O,"inconclusive: 0.206 µM [inhibitor, single point]",–
CS(=O)(=O)Cc1ccc(C(=O)NCC2(N3CCCCC3)CCCCC2)cc1,–,inactive: 7.87%
Cc1ccccc1-n1c(SCC(=O)N/N=C/C=C/c2ccccc2[N+](=O)[O-])nc2ccccc2c1=O,"inconclusive: 8.2 µM [inhibitor, partial curve, poor fit]",–
O=C(C1=C(O)C(=O)N(c2nccs2)C1c1ccccc1)c1cc2ccccc2o1 (stereo not given),"inconclusive: 16.4 µM [activator, single point]",–
Cc1ccc(NC(=S)N2C3CCCC2CC(NC(=O)C2CC2)C3)cc1C (stereo not given),–,inactive: -3.49%
c1ccc(Nc2nc(-c3ccncc3)cs2)cc1,"inconclusive: 18.4 µM [activator, single point]",–
O=C(c1cc(COc2ccc(F)cc2Cl)on1)N1CCSCC1,"inconclusive: 20.6 µM [activator, partial curve]",–
CN(C)S(=O)(=O)Oc1ccc(C(=O)Nc2ccc([N+](=O)[O-])cc2)cc1,active: 2.91 µM,–
O=c1c2ccccc2oc2nc(-c3ccco3)n(Cc3ccccc3)c(=O)c12,–,inactive: -24.7%
